Reference: the supplement of paper PMC4604168 (melanoma cell lines)
The other results are listed elsewhere or left out. Repeats are few or missing, and single values can be far off.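 Cells were imaged in 1,536-well plates, and nuclei stained with an antibody against cleaved PARP were counted against all DNA-stained nuclei to give the apoptosis fraction. Screening doses were chosen to leave most cells alive, and resting and induced cleaved-PARP levels differ strongly between cell lines.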

Assays:
Assay in all cases: cleaved PARP positive nuclei fraction relative to DMSO control; melanoma cells; higher = more apoptosis
Settings in all cases: library dose: low library concentration; 72 h
CBRC034 = test system: CBRC034 (line from a melanoma biopsy)
COLO792 = test system: COLO792
COLO800 = test system: COLO800
COLO829 = test system: COLO829
G361 = test system: G361
IPC-298 = test system: IPC-298
IST-MEL1 = test system: IST-MEL1
LB2518-MEL = test system: LB2518-MEL
LOXIMVI = test system: LOXIMVI

SMILES | cleaved PARP positive nuclei fraction (CBRC034) [%] | cleaved PARP positive nuclei fraction (COLO792) [%] | cleaved PARP positive nuclei fraction (COLO800) [%] | cleaved PARP positive nuclei fraction (COLO829) [%] | cleaved PARP positive nuclei fraction (G361) [%] | cleaved PARP positive nuclei fraction (IPC-298) [%] | cleaved PARP positive nuclei fraction (IST-MEL1) [%] | cleaved PARP positive nuclei fraction (LB2518-MEL) [%] | cleaved PARP positive nuclei fraction (LOXIMVI) [%]
Cc1cc(SCc2sc(-c3ccc(C(F)(F)F)c(F)c3)nc2C)ccc1OCC(=O)O + O=c1cc(-c2cccc3c2Sc2ccccc2S3)oc(N2CCOCC2)c1 [KU55933] (first compound 2 µM, partner dose 1 µM) | 72.5 | 85.1 | 41 | 91.5 | 61.9 | 40.6 | 179 | 221 | 33.5
COc1cc2c(Oc3ccc4[nH]c(C)cc4c3F)ncnc2cc1OCCCN1CCCC1 [cediranib] + O=C(Oc1ccc([N+](=O)[O-])cc1)N1CCC(C(O)(c2ccc3c(c2)OCO3)c2ccc3c(c2)OCO3)CC1 [JZL184] (first compound 0.4 µM, partner dose 1 µM) | 43.2 | 101 | 106 | 61.5 | 62.9 | 38.2 | 67.9 | 80.6 | 30.8
C#Cc1cccc(Nc2ncnc3cc(OCCOC)c(OCCOC)cc23)c1 [erlotinib] + O=C(Oc1ccc([N+](=O)[O-])cc1)N1CCC(C(O)(c2ccc3c(c2)OCO3)c2ccc3c(c2)OCO3)CC1 [JZL184] (first compound 0.8 µM, partner dose 1 µM) | 57.1 | 234 | 145 | 92.2 | 142 | 68.4 | 198 | 82.6 | 45.4
CO[C@@H]1[C@H](N(C)C(=O)c2ccccc2)C[C@H]2O[C@]1(C)n1c3ccccc3c3c4c(c5c6ccccc6n2c5c31)C(=O)NC4 [Midostaurin] + Cc1cc(SCc2sc(-c3ccc(C(F)(F)F)c(F)c3)nc2C)ccc1OCC(=O)O [GW0742] (first compound 0.08 µM, partner dose 2 µM) | 176 | 249 | 188 | 93.6 | 152 | 127 | 170 | 82.5 | 63
C[As](C)SC[C@H](NC(=O)CC[C@H](N)C(=O)O)C(=O)NCC(=O)O [Darinaparsin] + CCN(CC)CCCCNc1ncc2cc(-c3cc(OC)cc(OC)c3)c(NC(=O)NC(C)(C)C)nc2n1 [PD173074] (first compound 0.4 µM, partner dose 0.1 µM) | 34.8 | 194 | 110 | 113 | 122 | 25.2 | 107 | 76 | 13.5
Oc1cc(-c2nc(-c3ccccc3)[nH]c2-c2ccncc2)ccc1Cl + C/C(O)=C(\C#N)C(=O)Nc1cc(Br)ccc1Br [LFM-A13] (first compound 0.2 µM, partner dose 2 µM) | 210 | 102 | 67.9 | 80.7 | 132 | 105 | 42.8 | 118 | 45.4
C[C@@H]1CCN(C(=O)CC#N)C[C@@H]1N(C)c1ncnc2[nH]ccc12 + C/C(O)=C(\C#N)C(=O)Nc1cc(Br)ccc1Br [LFM-A13] (first compound 1 µM, partner dose 2 µM) | 28.4 | 112 | 108 | 72 | 66.4 | 363 | 115 | 79.2 | 12
C[As](C)SC[C@H](NC(=O)CC[C@H](N)C(=O)O)C(=O)NCC(=O)O [Darinaparsin] + O=C(O)C(=O)Nc1sc2c(c1C(=O)O)CCNC2 [TCS401] (first compound 0.4 µM, partner dose 1.66667 µM) | 178 | 69.9 | 38.9 | 66.8 | 72.4 | 116 | 169 | 156 | 29
COc1cc(N2CCC(N3CCN(C)CC3)CC2)ccc1Nc1ncc(Cl)c(Nc2ccccc2S(=O)(=O)C(C)C)n1 + O=C(Oc1ccc([N+](=O)[O-])cc1)N1CCC(C(O)(c2ccc3c(c2)OCO3)c2ccc3c(c2)OCO3)CC1 [JZL184] (first compound 0.08 µM, partner dose 1 µM) | 92.1 | 116 | 224 | 188 | 123 | 164 | 211 | 76.8 | 54.3
NCC(=O)Nc1ccc(-n2nc(C(F)(F)F)cc2-c2ccc3c(ccc4ccccc43)c2)cc1 + C/C(O)=C(\C#N)C(=O)Nc1cc(Br)ccc1Br [LFM-A13] (first compound 1 µM, partner dose 2 µM) | 97.9 | 137 | 90.9 | 107 | 108 | 82 | 64.3 | 92.1 | 40.9
Cc1cc(SCc2sc(-c3ccc(C(F)(F)F)c(F)c3)nc2C)ccc1OCC(=O)O + C/C(O)=C(\C#N)C(=O)Nc1cc(Br)ccc1Br [LFM-A13] (first compound 2 µM, partner dose 2 µM) | 79.2 | 168 | 125 | 53.2 | 103 | 130 | 36.5 | 81.3 | 44.5
O=C(Nc1ccccc1)c1cc([N+](=O)[O-])ccc1Cl + Cc1cc(SCc2sc(-c3ccc(C(F)(F)F)c(F)c3)nc2C)ccc1OCC(=O)O [GW0742] (first compound 2 µM, partner dose 2 µM) | 190 | 96.1 | 104 | 121 | 239 | 215 | 177 | 186 | 43.7
C[C@]1(c2nc3c(C(N)=O)cccc3[nH]2)CCCN1 [Veliparib] + O=C(Oc1ccc([N+](=O)[O-])cc1)N1CCC(C(O)(c2ccc3c(c2)OCO3)c2ccc3c(c2)OCO3)CC1 [JZL184] (first compound 1.4 µM, partner dose 1 µM) | 88.5 | 136 | 190 | 102 | 76.4 | 41.6 | 55 | 185 | 277
O=S(=O)(c1ccccc1)N(CC(F)(F)F)c1ccc(C(O)(C(F)(F)F)C(F)(F)F)cc1 + Cc1cc(SCc2sc(-c3ccc(C(F)(F)F)c(F)c3)nc2C)ccc1OCC(=O)O [GW0742] (first compound 1.4 µM, partner dose 2 µM) | 42.2 | 141 | 45 | 70.4 | 130 | 91.1 | 123 | 86.1 | 11.6
Oc1cc(-c2nc(-c3ccccc3)[nH]c2-c2ccncc2)ccc1Cl + O=C(Oc1ccc([N+](=O)[O-])cc1)N1CCC(C(O)(c2ccc3c(c2)OCO3)c2ccc3c(c2)OCO3)CC1 [JZL184] (first compound 0.2 µM, partner dose 1 µM) | 51.7 | 69.8 | 77.4 | 219 | 159 | 250 | 70.1 | 87.2 | 112
NCC(=O)Nc1ccc(-n2nc(C(F)(F)F)cc2-c2ccc3c(ccc4ccccc43)c2)cc1 + Cc1cc(SCc2sc(-c3ccc(C(F)(F)F)c(F)c3)nc2C)ccc1OCC(=O)O [GW0742] (first compound 1 µM, partner dose 2 µM) | 95.9 | 46 | 65.4 | 107 | 84.4 | 54.1 | 58.7 | 85.2 | 84.6
COc1cc2c(Oc3ccc4[nH]c(C)cc4c3F)ncnc2cc1OCCCN1CCCC1 [cediranib] + C/C(O)=C(\C#N)C(=O)Nc1cc(Br)ccc1Br [LFM-A13] (first compound 0.4 µM, partner dose 2 µM) | 98.8 | 66 | 102 | 78.9 | 23 | 113 | 64.3 | 77.1 | 51.7
Cc1cc(SCc2sc(-c3ccc(C(F)(F)F)c(F)c3)nc2C)ccc1OCC(=O)O + Cc1cc([N+](=O)[O-])ccc1NS(=O)(=O)c1cc(Cl)ccc1Cl [FH535] (first compound 2 µM, partner dose 1 µM) | 21.4 | 91.2 | 87.6 | 131 | 26.8 | 106 | 41.7 | 75 | 1100
Oc1nc(-c2ccc(C(F)(F)F)cc2)nc2c1CSCC2 + O=C(Oc1ccc([N+](=O)[O-])cc1)N1CCC(C(O)(c2ccc3c(c2)OCO3)c2ccc3c(c2)OCO3)CC1 [JZL184] (first compound 2 µM, partner dose 1 µM) | 48.6 | 99.6 | 90.5 | 161 | 79.1 | 55.2 | 85.6 | 172 | 36.8
C[As](C)SC[C@H](NC(=O)CC[C@H](N)C(=O)O)C(=O)NCC(=O)O [Darinaparsin] + O=C(Oc1ccc([N+](=O)[O-])cc1)N1CCC(C(O)(c2ccc3c(c2)OCO3)c2ccc3c(c2)OCO3)CC1 [JZL184] (first compound 0.4 µM, partner dose 1 µM) | 54.6 | 65.9 | 137 | 140 | 70.7 | 55.2 | 59.5 | 80.4 | 21.7
C/C(O)=C(\C#N)C(=O)Nc1cc(Br)ccc1Br + CC(C)CCN1c2nc(Nc3cc(F)c(O)c(F)c3)ncc2N(C)C(=O)C1C [BID1870] (first compound 2 µM, partner dose 0.2 µM) | 78.7 | 108 | 85.7 | 91.1 | 152 | 18.7 | 129 | 421 | 39
COc1ccc2c(c1)CCC1C2CCC2(C)C(NCCCCCCN3C(=O)C=CC3=O)CCC12 (stereo unspecified) + C/C(O)=C(\C#N)C(=O)Nc1cc(Br)ccc1Br [LFM-A13] (first compound 0.4 µM, partner dose 2 µM) | 59.9 | 182 | 111 | 136 | 108 | 78.8 | 151 | 93.1 | 59.2
C[As](C)SC[C@H](NC(=O)CC[C@H](N)C(=O)O)C(=O)NCC(=O)O [Darinaparsin] + O=C(Nc1ccccc1)c1cc([N+](=O)[O-])ccc1Cl [GW9662] (first compound 0.4 µM, partner dose 2 µM) | 151 | 62.4 | 167 | 65.4 | 39.7 | 80.6 | 562 | 152 | 19.7
C[As](C)SC[C@H](NC(=O)CC[C@H](N)C(=O)O)C(=O)NCC(=O)O [Darinaparsin] + O=S(=O)(c1ccccc1)N(CC(F)(F)F)c1ccc(C(O)(C(F)(F)F)C(F)(F)F)cc1 [T0901317] (first compound 0.4 µM, partner dose 1.4 µM) | 84.3 | 40.8 | 168 | 80.3 | 50 | 129 | 141 | 71.7 | 58.9

Some of the entries so far, as tab-separated lines.
SMILES	cleaved PARP positive nuclei fraction (CBRC034) [%]	cleaved PARP positive nuclei fraction (COLO792) [%]	cleaved PARP positive nuclei fraction (COLO800) [%]	cleaved PARP positive nuclei fraction (COLO829) [%]	cleaved PARP positive nuclei fraction (G361) [%]	cleaved PARP positive nuclei fraction (IPC-298) [%]	cleaved PARP positive nuclei fraction (IST-MEL1) [%]	cleaved PARP positive nuclei fraction (LB2518-MEL) [%]	cleaved PARP positive nuclei fraction (LOXIMVI) [%]
CO[C@@H]1[C@H](N(C)C(=O)c2ccccc2)C[C@H]2O[C@]1(C)n1c3ccccc3c3c4c(c5c6ccccc6n2c5c31)C(=O)NC4 [Midostaurin] + Cc1cc(SCc2sc(-c3ccc(C(F)(F)F)c(F)c3)nc2C)ccc1OCC(=O)O [GW0742] (first compound 0.08 µM, partner dose 2 µM)	176	249	188	93.6	152	127	170	82.5	63
Oc1cc(-c2nc(-c3ccccc3)[nH]c2-c2ccncc2)ccc1Cl + O=C(Oc1ccc([N+](=O)[O-])cc1)N1CCC(C(O)(c2ccc3c(c2)OCO3)c2ccc3c(c2)OCO3)CC1 [JZL184] (first compound 0.2 µM, partner dose 1 µM)	51.7	69.8	77.4	219	159	250	70.1	87.2	112
COc1cc2c(Oc3ccc4[nH]c(C)cc4c3F)ncnc2cc1OCCCN1CCCC1 [cediranib] + C/C(O)=C(\C#N)C(=O)Nc1cc(Br)ccc1Br [LFM-A13] (first compound 0.4 µM, partner dose 2 µM)	98.8	66	102	78.9	23	113	64.3	77.1	51.7
Cc1cc(SCc2sc(-c3ccc(C(F)(F)F)c(F)c3)nc2C)ccc1OCC(=O)O + Cc1cc([N+](=O)[O-])ccc1NS(=O)(=O)c1cc(Cl)ccc1Cl [FH535] (first compound 2 µM, partner dose 1 µM)	21.4	91.2	87.6	131	26.8	106	41.7	75	1100
C/C(O)=C(\C#N)C(=O)Nc1cc(Br)ccc1Br + CC(C)CCN1c2nc(Nc3cc(F)c(O)c(F)c3)ncc2N(C)C(=O)C1C [BID1870] (first compound 2 µM, partner dose 0.2 µM)	78.7	108	85.7	91.1	152	18.7	129	421	39
COc1ccc2c(c1)CCC1C2CCC2(C)C(NCCCCCCN3C(=O)C=CC3=O)CCC12 (stereo unspecified) + C/C(O)=C(\C#N)C(=O)Nc1cc(Br)ccc1Br [LFM-A13] (first compound 0.4 µM, partner dose 2 µM)	59.9	182	111	136	108	78.8	151	93.1	59.2
